# Laboratory results published in PubChem BioAssay.
# This is a selection; strong and weak results do not stand in their true shares. Active and inactive are the calls of the source. No rule for the calls is given here.
# Test: inhibitors of Cryptococcus chitosan production, flow cytometry, Cibacron Brilliant Red staining (AID 1347148);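 also: compound exposure lasted three days at 37 degrees C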
# Conditions: Cryptococcus neoformans chitosan, at 107.2 µM, active compounds read low
smiles,measurement,value
CN[C@@H]1C[C@H]2O[C@@](C)([C@@H]1OC)n1c3ccccc3c3c4c(c5c6ccccc6n2c5c31)C(=O)NC4,fold fluorescence,inactive: 4.51
